± gives the standard deviation of the averaged measurements. Small differences around the control level are noise.
Assays:
Assay in all cases: level (log10 ratio to DMSO vehicle control); higher = higher biomarker level / cell amount than vehicle control
[1] = compound: O=P(O)(O)CCC(F)(F)C(F)(F)C(F)(F)C(F)(F)C(F)(F)C(F)(F)C(F)(F)C(F)(F)F [((Perfluorooctyl)ethyl)phosphonic acid]; settings: 2200 nM; in DMSO
Method: (§1)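 BioMAP Diversity Plus panel of 12 human primary cell co-culture systems (3C, 4H, LPS, SAg, BT, BF4T, BE3C, CASM3C, HDF3CGF, KF3CT, MyoF, Mphg). Compounds were added 1 h before stimulation and left for 24 h (MyoF 48 h; BT 72 h for soluble read-outs or 6 d for IgG). Biomarkers were read by ELISA, cytotoxicity by SRB, PBMC viability and proliferation by Alamar Blue. Each well value was divided by the mean of 8 DMSO control wells on the same plate and log10 transformed; duplicate blinded samples were tested at 4 concentrations.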

[2] = compound: C=C(C)C(=O)OCC(F)(F)C(F)(F)C(F)(F)F [2,2,3,3,4,4,4-Heptafluorobutyl methacrylate]; settings: 2200 nM; in DMSO
Method: as §1

[3] = compound: FC(F)(F)C(F)(F)C(F)(F)C(F)(F)C(F)(F)C(F)(F)C(F)(F)CCI [1-Iodo-1H,1H,2H,2H-perfluorononane]; settings: in DMSO
Method: as §1

[4] = compound: O=C(O)C(F)(F)OC(F)(F)C(F)(F)OC(F)(F)C(F)(F)C(F)(F)C(F)(F)F [Perfluoro-3,6-dioxadecanoic acid]; settings: 2200 nM; in DMSO
Method: as §1

[5] = compound: FC(F)C(F)(F)COCC1CO1 [((2,2,3,3-Tetrafluoropropoxy)methyl)oxirane]; settings: 2200 nM; in DMSO
Method: as §1

Perfluoroundecanoic acid = compound: O=C(O)C(F)(F)C(F)(F)C(F)(F)C(F)(F)C(F)(F)C(F)(F)C(F)(F)C(F)(F)C(F)(F)C(F)(F)F [Perfluoroundecanoic acid]; settings: in DMSO
Method: as §1

Perfluorobutanoic acid = compound: O=C(O)C(F)(F)C(F)(F)C(F)(F)F [Perfluorobutanoic acid]; settings: 2200 nM; in DMSO
Method: as §1

[6] = compound: O=C(O)C(F)(F)OC(F)(F)C(F)(F)OC(F)(F)C(=O)O [Perfluoro-3,6-dioxaoctane-1,8-dioic acid]; settings: 2200 nM; in DMSO
Method: as §1

Perfluoropropanoic acid = compound: O=C(O)C(F)(F)C(F)(F)F [Perfluoropropanoic acid]; settings: 2200 nM; in DMSO
Method: as §1

[7] = compound: O=S(=O)(Cl)C(F)(F)C(F)(F)C(F)(F)C(F)(F)C(F)(F)C(F)(F)C(F)(F)C(F)(F)F [Perfluoro-1-octanesulfonyl chloride]; settings: 2200 nM; in DMSO
Method: as §1

[8] = compound: C=CC(=O)OCC(F)(F)C(F)(F)C(F)(F)C(F)(F)COC(=O)C=C [1H,1H,6H,6H-Perfluorohexane-1,6-diol diacrylate]; settings: 2200 nM; in DMSO
Method: as §1

[9] = compound: O=C(O)C=CC(F)(C(F)(F)F)C(F)(F)F [3-(Perfluoroisopropyl)-2-propenoic acid]; settings: in DMSO
Method: as §1

[10] = compound: O=C(O)C(F)(F)C(F)(F)C(F)(F)C(F)(F)C(F)(F)C(F)(F)C(F)(F)C(F)F [9-H-Perfluorononanoic acid]; settings: 2200 nM; in DMSO
Method: as §1

[11] = compound: OCC(F)(F)C(F)(F)C(F)(F)C(F)(F)C(F)(F)C(F)(F)C(F)(F)C(F)(F)C(F)(F)C(F)(F)C(F)(F)F [11:1 Fluorotelomer alcohol]; settings: in DMSO
Method: as §1

Perfluorooctanamide = compound: NC(=O)C(F)(F)C(F)(F)C(F)(F)C(F)(F)C(F)(F)C(F)(F)C(F)(F)F [Perfluorooctanamide]; settings: 2200 nM; in DMSO
Method: as §1

[12] = compound: O=C(O)C(F)(F)C(F)(F)OC(F)(F)F [Perfluoro-3-methoxypropanoic acid]; settings: 2200 nM; in DMSO
Method: as §1

[13] = compound: FC(F)(F)C(F)(F)C(F)(F)C(F)(F)C(F)(F)C(F)(F)C(F)(F)I [1-Iodopentadecafluoroheptane]; settings: in DMSO
Method: as §1

[14] = compound: OCCC(F)(F)C(F)(F)C(F)(F)C(F)(F)C(F)(F)C(F)(F)C(F)(F)C(F)(F)F [8:2 Fluorotelomer alcohol]; settings: 2200 nM; in DMSO
Method: as §1

Test System	level (log10) [1]	level (log10) [2]	level (log10) ([3]; 740 nM)	level (log10) ([3]; 2200 nM)	level (log10) ([3]; 6700 nM)	level (log10) ([3]; 20000 nM)	level (log10) [4]	level (log10) [5]	level (log10) (Perfluoroundecanoic acid; 740 nM)	level (log10) (Perfluoroundecanoic acid; 2200 nM)	level (log10) (Perfluorobutanoic acid)	level (log10) [6]	level (log10) (Perfluoropropanoic acid)	level (log10) [7]	level (log10) [8]	level (log10) ([9]; 2200 nM)	level (log10) ([9]; 6700 nM)	level (log10) ([9]; 20000 nM)	level (log10) ([9]; 60000 nM)	level (log10) [10]	level (log10) ([11]; 370 nM)	level (log10) ([11]; 1100 nM)	level (log10) ([11]; 3300 nM)	level (log10) ([11]; 10000 nM)	level (log10) (Perfluorooctanamide)	level (log10) [12]	level (log10) ([13]; 740 nM)	level (log10) ([13]; 2200 nM)	level (log10) ([13]; 6700 nM)	level (log10) ([13]; 20000 nM)	level (log10) [14]
3C:CD142/Tissue Factor	0.012 ± 0.037	0.011 ± 0.014	0.026 ± 0.014	0.0325 ± 0.016	0.01 ± 0.0071	0.0065 ± 0.0078	-0.0025 ± 0.052	0.004 ± 0.048	-0.0375 ± 0.042	-0.036 ± 0.021	0.0055 ± 0.039	0.022 ± 0.011	-0.0015 ± 0.035	-0.0355 ± 0.036	-0.0345 ± 0.053	-0.0115 ± 0.052	-0.018 ± 0.065	-0.036 ± 0.048	0.003 ± 0.061	0.042 ± 0.0028	0.019 ± 0.018	0.028 ± 0.024	0.074 ± 0.034	0.0865 ± 0.0092	-0.0195 ± 0.0035	0.0075 ± 0.046	-0.015 ± 0.052	-0.0035 ± 0.046	-0.0085 ± 0.015	-0.052 ± 0.076	0.0045 ± 0.1
3C:CD106/VCAM-1	-0.001 ± 0.0014	0.0135 ± 0.04	-0.005 ± 0.0085	-0.0215 ± 0.021	-0.015 ± 0.014	-0.0115 ± 0.0021	0.004 ± 0.0057	-0.002 ± 0.018	-0.0135 ± 0.019	-0.0105 ± 0.0021	-0.014 ± 0.0099	0.019 ± 0.017	-0.008 ± 0.011	0.0055 ± 0.0035	-0.0155 ± 0.0035	0.0085 ± 0.033	-0.002 ± 0.03	-0.039 ± 0.037	-0.0205 ± 0.00071	-0.016 ± 0.03	-0.004 ± 0.0028	0.008 ± 0.016	0.007	0.022 ± 0.0099	-0.0235 ± 0.0078	0.009 ± 0.017	-0.004 ± 0.0042	-0.0055 ± 0.021	-0.0165 ± 0.016	-0.005 ± 0.011	-0.0065 ± 0.057
BF4T:CD106/VCAM-1	0.005 ± 0.033	-0.0155 ± 0.03	0.007 ± 0.011	0.025 ± 0.0014	-0.027 ± 0.0085	-0.061 ± 0.014	-0.0285 ± 0.067	0.0315 ± 0.022	-0.0035 ± 0.059	-0.0415 ± 0.0064	0.0185 ± 0.015	-0.014 ± 0.04	-0.003	0.0045 ± 0.067	-0.019 ± 0.0085	-0.0095 ± 0.064	-0.0095 ± 0.04	-0.0275 ± 0.025	0.0225 ± 0.019	-0.0235 ± 0.044	-0.007 ± 0.0099	0.0045 ± 0.016	-0.021 ± 0.025	-0.016 ± 0.02	0.012 ± 0.03	-0.0005 ± 0.069	0.0225 ± 0.022	-0.01 ± 0.0085	-0.005 ± 0.011	-0.031 ± 0.0028	0.0015 ± 0.063
lMphg:CD62E/E-Selectin	-0.0065 ± 0.011	0.001 ± 0.024	0.0155 ± 0.0078	0.0105 ± 0.00071	0.016 ± 0.02	0.001 ± 0.0099	0.0025 ± 0.019	0.013 ± 0.025	-0.0025 ± 0.0092	0.0035 ± 0.0021	0.01	0.0125 ± 0.022	0.0075 ± 0.018	-0.017 ± 0.0099	-0.019 ± 0.018	0.0055 ± 0.018	-0.0045 ± 0.012	-0.002 ± 0.0099	0.0205 ± 0.0035	-0.0105 ± 0.012	0.016 ± 0.0014	0.0715 ± 0.011	0.084 ± 0.024	0.118 ± 0.012	0.029 ± 0.048	-0.0065 ± 0.013	0.0135 ± 0.022	-0.0155 ± 0.028	0.016 ± 0.014	0.0355 ± 0.0078	0.042
MyoF:SRB	0.006 ± 0.021	-0.027 ± 0.041	0.001 ± 0.0042	-0.0005 ± 0.0064	0.016 ± 0.0014	0.0325 ± 0.0021	-0.0025 ± 0.0035	-0.0025 ± 0.005	0.0235 ± 0.00071	0.0245 ± 0.015	0.0065 ± 0.00071	-0.007 ± 0.0057	0.0025 ± 0.0078	-0.0005 ± 0.019	0.011 ± 0.0057	0.005 ± 0.02	-0.005 ± 0.0014	-0.0085 ± 0.0035	0 ± 0.018	0.0095 ± 0.005	-0.003 ± 0.011	0 ± 0.0042	-0.0015 ± 0.012	0.0015 ± 0.016	0.001 ± 0.011	0.003 ± 0.011	-0.004 ± 0.0057	0.0015 ± 0.0035	-0.0135 ± 0.00071	-0.131 ± 0.012	0.0065 ± 0.0092
3C:SRB	0.0005 ± 0.016	-0.003 ± 0.0014	0.014 ± 0.024	0.0055 ± 0.0064	0.0125 ± 0.015	0.0295 ± 0.03	-0.0255 ± 0.018	-0.005 ± 0.0099	0.021 ± 0.0099	0.0145 ± 0.0021	-0.008	-0.0125 ± 0.0078	0.0005 ± 0.0078	-0.0105 ± 0.015	0.011 ± 0.0099	-0.0045 ± 0.012	0.0035 ± 0.0078	0.0055 ± 0.019	0.0155 ± 0.015	0.005 ± 0.0014	0.0065 ± 0.012	-0.043 ± 0.0014	-0.115 ± 0.021	-0.116 ± 0.014	-0.008 ± 0.014	-0.015 ± 0.014	-0.0035 ± 0.011	-0.003 ± 0.0042	-0.001	0.001 ± 0.0014	-0.0195 ± 0.023
HDF3CGF:Proliferation 72hr	-0.02 ± 0.061	-0.017 ± 0.062	-0.0555 ± 0.0092	-0.0545 ± 0.023	-0.689 ± 0.0092	-0.815 ± 0.25	-0.0365 ± 0.12	-0.0835 ± 0.018	0.0415 ± 0.00071	0.0885 ± 0.0035	0.002 ± 0.05	-0.0235 ± 0.079	-0.018 ± 0.045	0.0625 ± 0.016	-0.333 ± 0.019	-0.0485 ± 0.098	-0.033 ± 0.083	0.0165 ± 0.086	0.04 ± 0.073	-0.0055 ± 0.032	-0.034 ± 0.078	-0.015 ± 0.065	0 ± 0.0099	0.021 ± 0.02	-0.0175 ± 0.044	-0.0105 ± 0.026	-0.001 ± 0.0057	0.008 ± 0.0042	-0.0275 ± 0.005	-0.135 ± 0.02	-0.03 ± 0.031

From the supplement of paper PMC10331698
